Test results reported in PMC3947954.
Results are given in words; binding and its absence hold for the method and conditions named. Binding seen in cells or lysates may run through a third protein. Binding calls can cover weak binding; strength is not graded here. Where a sequence is shown, tags or fusion partners need not be part of it.

The substances below were run against T1, HIP14L-GFP (Huntingtin Interacting Protein 14-like, GFP tagged) (human (from the printed RefSeq entries)) (UniProt Q8IUH4) (assay: co-IP; COS-7 cells transiently co-transfected, harvested after 24 h; lysed in 1% SDS TEEN, diluted in four volumes 1% TritonX-100 TEEN; GFP immunoprecipitated overnight (goat anti-GFP, Dynabeads Protein G); blots probed for HTT and GFP; HTT band as percent of the GFP band, normalized to 15Q HTT 1–548).
T1 sequence: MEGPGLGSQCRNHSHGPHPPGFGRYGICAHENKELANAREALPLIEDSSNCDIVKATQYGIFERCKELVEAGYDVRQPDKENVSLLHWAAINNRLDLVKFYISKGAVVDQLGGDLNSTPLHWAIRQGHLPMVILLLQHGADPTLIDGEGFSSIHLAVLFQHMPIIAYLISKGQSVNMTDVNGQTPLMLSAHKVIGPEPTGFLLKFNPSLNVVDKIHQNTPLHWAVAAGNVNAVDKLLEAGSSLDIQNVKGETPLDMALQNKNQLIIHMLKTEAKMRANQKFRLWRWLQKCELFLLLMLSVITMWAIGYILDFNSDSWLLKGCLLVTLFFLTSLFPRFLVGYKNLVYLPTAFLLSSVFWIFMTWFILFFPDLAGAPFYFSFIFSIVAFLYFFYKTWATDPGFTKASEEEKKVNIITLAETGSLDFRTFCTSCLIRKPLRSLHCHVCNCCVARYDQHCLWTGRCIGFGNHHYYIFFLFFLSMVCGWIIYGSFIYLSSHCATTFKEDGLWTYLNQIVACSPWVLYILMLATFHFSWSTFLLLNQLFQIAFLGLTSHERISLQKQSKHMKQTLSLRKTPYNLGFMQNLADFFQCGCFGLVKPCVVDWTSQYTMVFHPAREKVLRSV

Q: “128Q HTT 1–224 (human) (domain or fragment)” was tested. Which binding did it give?
A: The binding was “no binding”.

Q: “15Q HTT 1–427 (human) (domain or fragment)” was tested. Which binding did it give?
A: Its binding is “binds”.

Q: For “15Q HTT 1-548Δ257-315 (human) (domain or fragment)”, which binding is on record?
A: Its binding is “binds”.

Q: With HTT 88–548 (human) (domain or fragment) as the substance, how does the binding read?
A: The binding was “binds”.

Q: Which binding does the source give for “HTT 224–548 (human) (domain or fragment)” here?
A: Its binding is “binds”.

Q: With “128Q HTT 1–427 (human) (domain or fragment)” as the substance, how does the binding read?
A: Its binding is “binds”.

Q: How did the binding turn out when “HTT 151–548 (human) (domain or fragment)” was run?
A: The binding was “binds”.

Q: Which binding does the source give for “15Q HTT 1–548 (human) (domain or fragment)” here?
A: The binding was “binds”.

Q: With “HTT 427–548 (human) (domain or fragment)” as the substance, how does the binding read?
A: Its binding is “no binding”.

Q: For “15Q HTT 1–224 (human) (domain or fragment)”, which binding is on record?
A: The binding was “no binding”.
